Assay results: article PMC11157767 (Molecular Cancer, 2024)
Further values from the same series stand in other lists.

Test system: TFG-MET allograft tumors
Test: RNA-sequencing, differential expression and GSEA of TFG-MET allograft tumors
Assay type: in vivo, mouse
Details: CAP.v.Veh
Experimental: Error bars display standard error of mean, statistical significance was determined using t-test analysis. (****;p<0.0001, ***;p<0.001, **;p<0.01, *;p<0.05). […] Each dot represents an individual replicate. Error bars display standard error of the mean.
Each dot represents one gene.

[1] = GOCC_PERINUCLEAR_REGION_OF_CYTOPLASM
[2] = GOCC_PHOSPHATIDYLINOSITOL_3_KINASE_COMPLEX
[3] = GOCC_PLASMA_MEMBRANE_SIGNALING_RECEPTOR_COMPLEX
[4] = GOCC_PLATELET_ALPHA_GRANULE_LUMEN
[5] = GOCC_POLYMERIC_CYTOSKELETAL_FIBER
[6] = GOCC_POSTSYNAPTIC_SPECIALIZATION_MEMBRANE
[7] = GOCC_PROTEASOME_ACCESSORY_COMPLEX
[8] = GOCC_PROTEIN_COMPLEX_INVOLVED_IN_CELL_ADHESION
[9] = GOCC_RECYCLING_ENDOSOME_MEMBRANE
[10] = GOCC_ROUGH_ENDOPLASMIC_RETICULUM
[11] = GOCC_ROUGH_ENDOPLASMIC_RETICULUM_MEMBRANE
[12] = GOCC_SCF_UBIQUITIN_LIGASE_COMPLEX
[13] = GOCC_SCHAFFER_COLLATERAL_CA1_SYNAPSE
[14] = GOCC_SMOOTH_ENDOPLASMIC_RETICULUM

CNC(=O)c1ccc(-c2cnc3ncc(Cc4ccc5ncccc5c4)n3n2)cc1F [Capmatinib] gave an NES (GOCC_PERINUCLEAR_ENDOPLASMIC_RETICULUM) of -0.7376, an ES [1] of -0.1899 and an NES [1] of -0.9124. The ES (GOCC_PHOSPHATASE_COMPLEX) was -0.2642, the NES (GOCC_PHOSPHATASE_COMPLEX) was -0.9605 and the ES [2] was -0.4324. It also gave an NES [2] of -1.377, an ES (GOCC_PIGMENT_GRANULE) of 0.2169 and an NES (GOCC_PIGMENT_GRANULE) of 1.085. The ES (GOCC_PLASMA_MEMBRANE_RAFT) was -0.2417, the NES (GOCC_PLASMA_MEMBRANE_RAFT) was -0.9954 and the ES [3] was 0.1657. It also gave an NES [3] of 0.8969, an ES (GOCC_PLATELET_ALPHA_GRANULE) of 0.1803 and an NES (GOCC_PLATELET_ALPHA_GRANULE) of 0.8681. For the same compound, the ES [4] was 0.2296, the NES [4] was 1.037 and the ES (GOCC_PODOSOME) was -0.3106. The NES (GOCC_PODOSOME) was -1.005, the ES (GOCC_POLE_PLASM) was -0.4824 and the NES (GOCC_POLE_PLASM) was -1.316. For the same compound, the ES [5] was -0.2011, the NES [5] was -0.9608 and the ES (GOCC_PORE_COMPLEX) was -0.2826. It also gave an NES (GOCC_PORE_COMPLEX) of -0.8473, an ES (GOCC_POSTSYNAPTIC_ENDOSOME) of 0.4318 and an NES (GOCC_POSTSYNAPTIC_ENDOSOME) of 1.356. For the same compound, the ES [6] was 0.1653, the NES [6] was 0.8215 and the ES (GOCC_PRC1_COMPLEX) was -0.392. The NES (GOCC_PRC1_COMPLEX) was -1.07, the ES (GOCC_PRESYNAPSE) was 0.1605 and the NES (GOCC_PRESYNAPSE) was 0.9597. For the same compound, the ES [7] was -0.3722, the NES [7] was -1.158 and the ES [8] was -0.3375. The NES [8] was -1.138, the ES (GOCC_PSEUDOPODIUM) was 0.3771 and the NES (GOCC_PSEUDOPODIUM) was 1.184. For the same compound, the ES (GOCC_RECEPTOR_COMPLEX) was 0.1635, the NES (GOCC_RECEPTOR_COMPLEX) was 0.9687 and the ES (GOCC_RECYCLING_ENDOSOME) was 0.1904. It also gave an NES (GOCC_RECYCLING_ENDOSOME) of 1.032, an ES [9] of 0.1916 and an NES [9] of 0.938. The ES (GOCC_RETROMER_COMPLEX) was -0.4587, the NES (GOCC_RETROMER_COMPLEX) was -1.3508 and the ES (GOCC_RIBOSOMAL_SUBUNIT) was -0.225. The NES (GOCC_RIBOSOMAL_SUBUNIT) was -0.9859, the ES [10] was 0.2007 and the NES [10] was 0.9282. For the same compound, the ES [11] was -0.3098, the NES [11] was -0.9772 and the ES (GOCC_RUFFLE) was -0.2488. It also gave an NES (GOCC_RUFFLE) of -1.085, an ES (GOCC_RUFFLE_MEMBRANE) of -0.2397 and an NES (GOCC_RUFFLE_MEMBRANE) of -0.963. It also gave an ES (GOCC_SARCOLEMMA) of 0.1843, an NES (GOCC_SARCOLEMMA) of 0.954 and an ES (GOCC_SARCOPLASM) of 0.1776. It also gave an NES (GOCC_SARCOPLASM) of 0.8371, an ES [12] of -0.23 and an NES [12] of -0.864. The ES [13] was 0.2674, the NES [13] was 1.243 and the ES (GOCC_SIN3_TYPE_COMPLEX) was -0.4457. For the same compound, the NES (GOCC_SIN3_TYPE_COMPLEX) was -1.216, the ES (GOCC_SITE_OF_POLARIZED_GROWTH) was -0.1856 and the NES (GOCC_SITE_OF_POLARIZED_GROWTH) was -0.8172. It also gave an ES (GOCC_SMALL_RIBOSOMAL_SUBUNIT) of -0.2971, an NES (GOCC_SMALL_RIBOSOMAL_SUBUNIT) of -1.148 and an ES [14] of 0.2223. For the same compound, the NES [14] was 0.8413, the ES (GOCC_SODIUM_CHANNEL_COMPLEX) was 0.3002 and the NES (GOCC_SODIUM_CHANNEL_COMPLEX) was 1.025. The ES (GOCC_SPINDLE_MICROTUBULE) was -0.2513, the NES (GOCC_SPINDLE_MICROTUBULE) was -0.9618 and the ES (GOCC_SPINDLE_MIDZONE) was -0.2787. It also gave an NES (GOCC_SPINDLE_MIDZONE) of -0.9342 and an ES (GOCC_STEREOCILIUM_BUNDLE) of -0.2611.
